# Results deposited as PubChem BioAssay AID1053208 (Peter MacCallum Cancer Centre, 2014)
# Assay: 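Genes whose silencing cuts survival of bone tumour cells only with doxorubicin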 (primary screen)
# Cells: mouse osteosarcoma cells, early-passage culture from an engineered mouse model of fibroblastic bone tumour
# Reagent: siRNA pool against mouse genes, 40 nM
# Time to read-out: about 120 h (48 h before drug, then 72 h with drug)
# Challenge: doxorubicin 100 nM for 72 h, roughly 30-40% inhibitory dose
# Read-out: 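Viability read as ATP luminescence after 72 h of 100 nM doxorubicin or none, duplicate wells averaged, scaled to non-targeting siRNA, then expressed as robust z-scores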
# Direction: viability z-score with doxorubicin and doxorubicin viability vs non-targeting: higher = more viable cells under doxorubicin; viability z-score without drug: higher = more viable cells with knock-down alone; z-score of drug to no-drug ratio: higher = less drug sensitisation by knock-down
# Active means: 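Called active if knock-down leaves viability unchanged without drug (z within -2 to 2) but lowers it with doxorubicin (z at or under -2)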
# In all, the deposit lists about 17,000 reagents; below is a random part of them. 788 of all reagents (4.7%) were called active. 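Calls rest on z-score classes alone; an extra cut-off of viability at most 70% of control was not applied to them.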 The numbers tell different reagents against one gene apart. No sequences are given here.
gene,reagent no.,combined z-score class,viability z-score with doxorubicin,viability z-score without drug,z-score of drug to no-drug ratio,doxorubicin viability vs non-targeting,Outcome
Agr2 (anterior gradient 2),1,no change with or without drug,0.11,-0.51,0.56,0.95,inactive
Ube4b (ubiquitination factor E4B),1,no change with or without drug,0.11,-1.01,1.01,0.95,inactive
Defb39 (defensin beta 39),1,no change with or without drug,-0.45,0.84,-0.9,0.9,inactive
Abhd1 (abhydrolase domain containing 1),1,no change with or without drug,0.45,0.51,0.22,0.98,inactive
Nfkbia,1,no change with or without drug,1.69,-0.17,2.02,1.09,inactive
Eng (endoglin),1,no change with or without drug,-0.11,0.67,-0.45,0.93,inactive
Khk (ketohexokinase),1,no change with or without drug,1.46,0.17,1.46,1.07,inactive
Bmp7 (bone morphogenetic protein 7),1,no change with or without drug,-0.45,0,-0.34,0.9,inactive
"Scn3b (sodium channel, voltage-gated, type III, beta)",1,high cell count with doxorubicin only,2.25,1.52,1.35,1.14,inactive
"Coro2b (coronin, actin binding protein, 2B)",1,no change with or without drug,0.45,0.51,0.22,0.98,inactive
Ugp2 (UDP-glucose pyrophosphorylase 2),1,no change with or without drug,0.34,0.51,0.11,0.97,inactive
Anxa7 (annexin A7),1,no change with or without drug,-1.8,-0.51,-1.46,0.78,inactive
Ins2 (insulin II),1,high cell count with doxorubicin only,2.7,1.52,1.69,1.18,inactive
Klk4,1,high cell count with doxorubicin only,2.02,1.18,1.35,1.12,inactive
Med10 (mediator complex subunit 10),1,no change with or without drug,-0.22,-0.17,0,0.92,inactive
Ube2dnl1 (ubiquitin-conjugating enzyme E2D N-terminal like 1),1,no change with or without drug,-1.24,-0.34,-1.01,0.83,inactive
Or52r1b (olfactory receptor family 52 subfamily R member 1B),1,no change with or without drug,-0.9,-1.85,0.45,0.86,inactive
Bmp2k (BMP2 inducible kinase),1,no change with or without drug,-0.45,1.18,-1.12,0.9,inactive
"Zdhhc1 (zinc finger, DHHC domain containing 1)",1,no change with or without drug,0.9,0.51,0.67,1.02,inactive
Ca9 (carbonic anhydrase 9),1,no change with or without drug,1.12,0.17,1.12,1.04,inactive
A530013C23Rik (RIKEN cDNA A530013C23 gene),1,no change with or without drug,0.22,0.17,0.22,0.96,inactive
Or4p22 (olfactory receptor family 4 subfamily P member 22),1,no change with or without drug,0,-1.35,1.12,0.94,inactive
Prdm16 (PR domain containing 16),1,no change with or without drug,1.46,1.85,0.34,1.07,inactive
Defb34 (defensin beta 34),1,no change with or without drug,0.22,1.52,-0.67,0.96,inactive
Lypd6b (LY6/PLAUR domain containing 6B),1,no change with or without drug,-1.8,0.84,-2.25,0.78,inactive
Npsr1 (neuropeptide S receptor 1),1,no change with or without drug,0.79,0.51,0.56,1.01,inactive
Vmn1r228 (vomeronasal 1 receptor 228),1,no change with or without drug,0.79,0.84,0.34,1.01,inactive
Vmn1r6 (vomeronasal 1 receptor 6),1,no change with or without drug,0,-0.67,0.56,0.94,inactive
Ttc4 (tetratricopeptide repeat domain 4),1,no change with or without drug,1.12,1.85,0,1.04,inactive
Elmo2 (engulfment and cell motility 2),1,no change with or without drug,-1.57,1.52,-2.36,0.8,inactive
Ctsc (cathepsin C),1,no change with or without drug,-0.45,-1.35,0.56,0.9,inactive
Mamdc2 (MAM domain containing 2),1,no change with or without drug,0.22,0.51,0,0.96,inactive
Trmt6 (tRNA methyltransferase 6),1,no change with or without drug,0.9,0.17,0.9,1.02,inactive
Or52e7 (olfactory receptor family 52 subfamily E member 7),1,no change with or without drug,-1.01,-1.18,-0.11,0.85,inactive
Or5an6 (olfactory receptor family 5 subfamily AN member 6),1,no change with or without drug,0,-0.84,0.67,0.94,inactive
Eya1 (EYA transcriptional coactivator and phosphatase 1),1,no change with or without drug,1.01,0.51,0.79,1.03,inactive
Rpl9 (ribosomal protein L9),1,low cell count with and without drug,-6.74,-7.25,-3.71,0.34,inactive
Notch4 (notch 4),1,no change with or without drug,0.9,-0.51,1.46,1.02,inactive
Srrm1 (serine/arginine repetitive matrix 1),1,no change with or without drug,0.79,0,0.9,1.01,inactive
"Scara3 (scavenger receptor class A, member 3)",1,no change with or without drug,0.79,0.84,0.34,1.01,inactive
Zic4 (zinc finger protein of the cerebellum 4),1,no change with or without drug,0.56,1.01,0,0.99,inactive
Mov10 (Mov10 RISC complex RNA helicase),1,low cell count with and without drug,-3.04,-2.19,-1.8,0.67,inactive
Arl6ip4 (ADP-ribosylation factor-like 6 interacting protein 4),1,no change with or without drug,-0.67,0.34,-0.79,0.88,inactive
Mcrip2 (MAPK regulated corepressor interacting protein 2),1,no change with or without drug,-1.12,-0.67,-0.67,0.84,inactive
"Gen1 (GEN1, Holliday junction 5' flap endonuclease)",1,no change with or without drug,1.12,1.01,0.56,1.04,inactive
Polr2c (polymerase (RNA) II (DNA directed) polypeptide C),1,low cell count with doxorubicin only,-4.27,0.51,-4.61,0.56,active
Kirrel1 (kirre like nephrin family adhesion molecule 1),1,no change with or without drug,1.57,1.52,0.67,1.08,inactive
Kirrel1 (kirre like nephrin family adhesion molecule 1),2,no change with or without drug,-0.45,-0.51,0,0.9,inactive
Emc2 (ER membrane protein complex subunit 2),1,no change with or without drug,-1.12,0.67,-1.46,0.84,inactive
Wee1 (WEE 1 homolog 1 (S. pombe)),1,low cell count with and without drug,-5.85,-2.53,-5.17,0.42,inactive
